Laboratory results as given in PubChem BioAssay AID2517 (National Center for Advancing Translational Sciences (NCATS), 2010).
Screen size: about 350,000 compounds; about 1,200 (0.34%) were called active. This list was built around the results that the source calls inconclusive (neither active nor inactive); the mix of calls is not that of the screen. Calls come from the whole dose curve; as a rule, active = well fitted inhibition curve with a large enough effect; inconclusive = small, poorly fitted or top-dose-only effect; inactive = no such curve, though single readings can be large or run the other way. Where the call is inconclusive, the potency comes from a doubtful curve fit.

Chains of the proteins cited; added tags and fusions are not shown.
UniProt P27695, whole entry, looked up: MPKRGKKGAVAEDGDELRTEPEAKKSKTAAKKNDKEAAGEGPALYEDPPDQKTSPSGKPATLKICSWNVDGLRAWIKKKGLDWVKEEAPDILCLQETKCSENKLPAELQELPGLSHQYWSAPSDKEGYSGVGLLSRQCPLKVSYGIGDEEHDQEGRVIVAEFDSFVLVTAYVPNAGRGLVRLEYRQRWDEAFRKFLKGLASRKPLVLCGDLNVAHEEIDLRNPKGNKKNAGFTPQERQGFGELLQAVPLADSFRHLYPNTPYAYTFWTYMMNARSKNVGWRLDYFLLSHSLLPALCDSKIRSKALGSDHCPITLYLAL

The compounds below were run against DNA repair nuclease/redox regulator APEX1 (Homo sapiens) (UniProt P27695) (assay: qHTS Assay for Inhibitors of the Human Apurinic/apyrimidinic Endonuclease 1 (APE1)). Settings: recombinant APE1, TAMRA/BHQ-2 abasic DNA cleavage fluorescence; series mostly up to 65.8 µM.
How it was run: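 Readout is kinetic fluorescence (ex 525, em 598 nm) from cleavage of 50 nM TAMRA/BHQ-2 THF abasic duplex by 0.75 nM APE1, compound added 15 min beforehand at RT.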
Note: nearly all actives have a fitted effect of over 55% in size.
Potency is the fitted concentration of half-maximal effect.

Structure (SMILES)	Potency
COc1cc(/C=C(/C#N)c2ccccc2)ccc1Oc1ccc([N+](=O)[O-])cn1	inconclusive: 20 µM [inhibitor, single point]
O=C(O)c1ccccc1-c1c2ccc(=O)cc-2oc2cc(O)ccc12	active: 28.2 µM
Cc1cc(C(=O)O)cc(Br)c1N	inconclusive: 0.398 µM [inhibitor, full curve]
O=[N+]([O-])c1ccc(C=Nc2cccc3ccccc23)s1	inconclusive: 39.8 µM [inhibitor, single point]
CC1=NN(c2nc3ccccc3[nH]2)C(=O)C1Cc1ccccc1 (stereo not drawn)	inconclusive: 3.55 µM [inhibitor, single point]
O=C1C(Cl)=C(N2CCOCC2)C(=O)N1c1ccccc1	inconclusive: 5.62 µM [inhibitor, full curve]
CCCCCCCC/C=C\CCCCCCCC(=O)NCC(=O)O	inactive
c1ccc2c(-n3ccnc3)nc(-c3ccoc3)nc2c1	inactive
O=C(OCC(=O)N1CCN(C(=O)c2ccco2)CC1)c1cc(-c2ccco2)nc2ccccc12	active: 15.8 µM
Cc1ccc(C(C(=O)Nc2ccc3c(c2)OCO3)N(C)C(=O)/C=C\c2ccc3c(c2)OCO3)cc1 (stereo not drawn)	inconclusive: 12.6 µM [inhibitor, partial curve]
O=C(Nc1cccc(Cl)c1)c1ccc(Cn2cc(Cl)cn2)cc1	inconclusive: 44.7 µM [inhibitor, single point]
CC(C)(C)SCCNS(=O)(=O)c1ccc(C#N)cc1	inconclusive: 3.55 µM [inhibitor, single point]
COc1ccc(N=C2NN=C(c3ccc4c(c3)OCCO4)CS2)cc1	inconclusive: 28.2 µM [inhibitor, single point]
O=C(c1ccco1)N1CCC[C@@]2(CCN(c3ccccc3)C2)C1	inactive
COc1ccccc1-c1cc(C(=O)N/N=C\c2cnn(C)c2C)c2ccccc2n1	inconclusive: 22.4 µM [inhibitor, single point]
COc1ccccc1CN(Cc1nc2ccccc2c(=O)[nH]1)C(=O)Nc1cccc(C)c1	inconclusive: 17.8 µM [inhibitor, single point]
CCc1cccc(NC(=O)c2ccc(NS(=O)(=O)c3c(C)noc3C)cc2)c1	inconclusive: 0.005 µM [inhibitor, full curve, poor fit]
CCOC(=O)c1nn(-c2ccc3c(c2)CCN3C(C)=O)cc1O	inconclusive: 39.8 µM [inhibitor, single point]
CC(C)=CCC/C(C)=C/CO/N=C1/C[C@@H](O)[C@@H](O)[C@@H]2[C@H]3C(=O)N(c4ccc(F)cc4F)C(=O)[C@@H]3CC[C@@H]12	inconclusive: 4.47 µM [inhibitor, single point]
COC(=O)[C@@]1(Cc2ccc(F)cc2)[C@H]2c3cc(C(=O)N4CCCC4)n(CCc4ccccn4)c3C[C@H]2CN1C(=O)c1ccccc1	inconclusive: 4.47 µM [inhibitor, single point]
Cc1cccc(CNc2nc(-c3ccoc3)nc3ccccc23)c1	inconclusive: 0.0316 µM [inhibitor, full curve, poor fit]
NC(=O)NC(CC(=O)NCCc1ccc(S(N)(=O)=O)cc1)c1ccc(Cl)cc1 (stereo not drawn)	inactive
CC(C)(C)c1nn(-c2ccccc2)c2[nH]c(=O)c(CNCc3ccc4c(c3)OCO4)cc12	inconclusive: 0.0631 µM [inhibitor, partial curve, poor fit]

Structure (SMILES)	Potency
CCOCCCNC(=O)c1cc(Nc2ccc(OC)cc2OC)nc2ccccc12	inconclusive: 4.74 µM [inhibitor, partial curve]
Cc1cccc(-c2nc(C#N)c(NCC3CCCO3)o2)c1 (stereo not drawn)	inconclusive: 35.5 µM [inhibitor, single point]
COc1ccc2c(c1)NC(=O)CC(c1ccccc1)=N2	inconclusive: 1.78 µM [inhibitor, partial curve]
COc1ccc(C)cc1-n1c(SCC(=O)Nc2cc(C)on2)nc2ccccc2c1=O	inactive
O=C(O)/C(=C/c1ccco1)NC(=O)c1ccccc1	inconclusive: 35.5 µM [inhibitor, single point]
COc1ccccc1C(CC(=O)c1ccccc1)CC(=O)c1ccccc1	inconclusive: 31.6 µM [inhibitor, partial curve, poor fit]
Cc1nnc(NC(=O)COc2ccc3c(C)cc(=O)oc3c2)s1	inactive
CCOC(=O)C(=CNc1ccc(Cl)cn1)C(=O)OCC	inactive
CCc1cc(CNC(=O)CC2C(=O)NCCN2Cc2cccc(OC)c2)on1 (stereo not drawn)	inconclusive: 4.47 µM [inhibitor, single point]
Cc1nnc2c3ccccc3c(Cl)nn12	inconclusive: 39.8 µM [inhibitor, single point]
Cc1cc(/C=N/n2c(COc3ccccc3)nc3ccccc3c2=O)c(O)c([N+](=O)[O-])c1	inactive
COc1ccccc1OCc1nnc(SCC(=O)NCc2ccco2)n1Cc1ccco1	inconclusive: 31.6 µM [inhibitor, single point]
Cc1ccc(S(=O)(=O)NCC(=O)N(CC(=O)NCC2CCCO2)Cc2ccco2)cc1 (stereo not drawn)	inconclusive: 39.8 µM [inhibitor, single point]
O=C(O)CC(NC(=O)COc1ccc(Cl)cc1Cl)C(=O)O (stereo not drawn)	inactive
NC(=O)N=Nc1c2[nH]c3ccccc3nc-2c2ccccc12	inconclusive: 7.08 µM [inhibitor, full curve]
CCNc1nc(NCC)n2c(SCC(=O)Nc3cccc(Cl)c3)nnc2n1	active: 26.7 µM
Cc1cc(C(=O)COC(=O)c2ccc3c(c2)NC(=O)CS3)c(C)n1CC1CCCO1 (stereo not drawn)	inconclusive: 1.26 µM [inhibitor, full curve]
O=C(CSc1nccc(=O)[nH]1)N1N=C2/C(=C/c3ccco3)CCCC2C1c1ccco1 (stereo not drawn)	active: 12.6 µM
CCOC(=O)C1=C(C)N(C)C(=O)NC1c1cc2c(cc1[N+](=O)[O-])OCO2 (stereo not drawn)	inactive
C=CCn1c(OCc2ccccc2)n[nH]c1=S	inconclusive: 0.67 µM [inhibitor, single point]
Oc1ccccc1Nc1nc(NCC2CCCO2)c2ccccc2n1 (stereo not drawn)	inconclusive: 44.7 µM [inhibitor, single point]
CCOC(=O)c1nc(Nc2ccc(N3CCC(C)CC3)cc2)c2ccccc2n1	inconclusive: 39.8 µM [inhibitor, single point]
COc1cc(OC)c(C2C(C#N)=C(N)OC3=C2C(=O)CC(C)(C)C3)cc1OC (stereo not drawn)	inconclusive: 35.5 µM [inhibitor, single point]

4 entries drawn at random from those above, as already listed:
Structure (SMILES)	Potency
Cc1ccc(S(=O)(=O)NCC(=O)N(CC(=O)NCC2CCCO2)Cc2ccco2)cc1 (stereo not drawn)	inconclusive: 39.8 µM [inhibitor, single point]
COc1cc(OC)c(C2C(C#N)=C(N)OC3=C2C(=O)CC(C)(C)C3)cc1OC (stereo not drawn)	inconclusive: 35.5 µM [inhibitor, single point]
COc1ccc2c(c1)NC(=O)CC(c1ccccc1)=N2	inconclusive: 1.78 µM [inhibitor, partial curve]
O=C(CSc1nccc(=O)[nH]1)N1N=C2/C(=C/c3ccco3)CCCC2C1c1ccco1 (stereo not drawn)	active: 12.6 µM

Further structures

Structure (SMILES)	Potency
CC(C)CC(=O)N=C1SC2CS(=O)(=O)CC2N1Cc1ccccc1Cl (stereo not drawn)	inconclusive: 8.91 µM [inhibitor, single point]
O=C(CN1CC[n+]2c(-c3cccs3)csc21)c1ccc(-c2ccccc2)cc1	inconclusive: 0.178 µM [inhibitor, full curve, poor fit]
CCOC(=O)c1c(N)sc(C)c1-c1ccccc1	inconclusive: 28.2 µM [inhibitor, single point]
O=C(Cn1cc[n+](CC(=O)c2ccccc2)c1)c1ccccc1	inactive
O=C(CSc1nnc(-c2cccnc2)o1)Nc1ccc(Cl)cc1	inactive
Cc1oc(C(=O)O)cc1CSCc1cc(C(=O)O)c(C)o1	inconclusive: 25.1 µM [inhibitor, single point]
Cn1c(N)c(C(=O)Nc2ccc(-c3ccccc3)cc2)sc1=S	inconclusive: 3.16 µM [inhibitor, single point]
CO[C@H]1COC(=O)[C@H](C)NC(=O)[C@@H](C)COC(=O)C/C=C\[C@@H]1C	inconclusive: 3.16 µM [inhibitor, single point]
CCOc1ccc(CCNS(=O)(=O)c2c(C)n[nH]c2C)cc1OCC	inconclusive: 0.0056 µM [inhibitor, full curve, poor fit]
NC(=O)[C@@H]1CCCCNc2c(F)cc([N+](=O)[O-])cc2C(=O)N[C@@H](CC(=O)O)C(=O)NCC(=O)N1	inconclusive: 3.16 µM [inhibitor, single point]
O=C(Nc1ccc(F)cc1F)Nc1ccc(F)cc1F	inconclusive: 3.98 µM [inhibitor, full curve, poor fit]
C=C(C)CN(CC)C(=O)CCc1nnc(CCCc2ccccc2)o1	inconclusive: 8.91 µM [inhibitor, single point]
CCCc1nc2oc3cc(OC)ccc3c(=O)c2c(=O)n1Cc1ccco1	inactive
Nc1ccc2nc(-c3ccccc3)[nH]c2c1	inactive
CC1CCC(NC(=O)CC(C)(C)Cc2nc3ccccc3c(=O)[nH]2)CC1 (stereo not drawn)	inconclusive: 50.1 µM [inhibitor, partial curve, poor fit]
COc1ccc(-n2c(Cc3cccn3C)nnc2SCC(=O)N2CCCc3ccccc32)cc1	inactive
CN(Cc1ccco1)c1ccnc(-c2cccnc2)n1	inconclusive: 35.5 µM [inhibitor, single point]
O=C(NCc1ccco1)C(=O)NCC1OCCN1S(=O)(=O)c1ccccc1 (stereo not drawn)	inconclusive: 3.98 µM [inhibitor, single point]
COc1ccc(OC)c(NC(=O)COC(=O)C2CCN(C(=O)c3ccc(Cl)cc3)CC2)c1	inconclusive: 44.7 µM [inhibitor, single point]
O=c1cc(O)n(C2CCCCCC2)c(=O)[nH]1	inactive
COc1ccc(CCNc2ncnc3c2[nH]c2cc(OC)c(OC)cc23)cc1OC	inconclusive: 20 µM [inhibitor, partial curve]
Nc1nnnn1/N=C/C(Br)=C/c1ccccc1	inconclusive: 44.7 µM [inhibitor, single point]
